Results from publication PMC5996148.
“And” between values parts separate entries of the source, which are not always exact repeats. Identical values can stand only once. This is one part of the list.

Assays:
Test in all cases: protein microarray (ProtoArray v5.0), streptavidin-Alexa Fluor 647
Conditions in all cases: 3'-biotin; 20 mM Tris (pH 7.5), 5 mM MgCl2, 100 mM KCl, 0.1% Tween-20, A/T-rich and random oligonucleotide blockers; temperature not stated; high values mean tight binding
[1] = tested on: LARP6 (human)
[2] = tested on: LAS1L (human)
[3] = tested on: LASS2 (human)
[4] = tested on: LAT2 (human)
[5] = tested on: LCN1 (human)
[6] = tested on: LCP1 (human)
[7] = tested on: LDHB (human)
[8] = tested on: LENG4 (human)
[9] = tested on: LEPREL1 (human)
[10] = tested on: LETM2 (human)
[11] = tested on: LGALS1 (human)
[12] = tested on: LGALS3 (human)
[13] = tested on: LGALS8 (human)
[14] = tested on: LGI1 (human)
[15] = tested on: LILRB1 (human)
[16] = tested on: LILRB2 (human)
[17] = tested on: LIM domain kinase 2 (human)
[18] = tested on: LIMD1 (human)
[19] = tested on: LINE-1 type transposase domain-containing protein 1 (human)
[20] = tested on: LMAN1L (human)

## GGGAGGCTGAGGCAGG [G4-1 biotinylated (PQS2)]
[1]
  binding signal: -0.256 z-score
[2]
  binding signal: -0.336 z-score
[3]
  binding signal: -0.242 z-score
[4]
  binding signal: -0.295 z-score
[5]
  binding signal: -0.353 z-score
[6]
  binding signal: -0.342 z-score
[7]
  binding signal: -0.322 z-score
[8]
  binding signal: -0.312 z-score
[9]
  binding signal: -0.289 z-score
[10]
  binding signal: -0.35 z-score
[11]
  binding signal: -0.322 z-score
[12]
  binding signal: -0.292 z-score and -0.351 z-score
[13]
  binding signal: -0.296 z-score and -0.275 z-score
[14]
  binding signal: -0.295 z-score
[15]
  binding signal: -0.343 z-score
[16]
  binding signal: -0.334 z-score
[17]
  binding signal: -0.295 z-score
[18]
  binding signal: -0.346 z-score
[19]
  binding signal: -0.253 z-score
[20]
  binding signal: -0.344 z-score
